One test addresses T1, WDR44::GFP (human) (UniProt Q5JSH3).
T1 sequence: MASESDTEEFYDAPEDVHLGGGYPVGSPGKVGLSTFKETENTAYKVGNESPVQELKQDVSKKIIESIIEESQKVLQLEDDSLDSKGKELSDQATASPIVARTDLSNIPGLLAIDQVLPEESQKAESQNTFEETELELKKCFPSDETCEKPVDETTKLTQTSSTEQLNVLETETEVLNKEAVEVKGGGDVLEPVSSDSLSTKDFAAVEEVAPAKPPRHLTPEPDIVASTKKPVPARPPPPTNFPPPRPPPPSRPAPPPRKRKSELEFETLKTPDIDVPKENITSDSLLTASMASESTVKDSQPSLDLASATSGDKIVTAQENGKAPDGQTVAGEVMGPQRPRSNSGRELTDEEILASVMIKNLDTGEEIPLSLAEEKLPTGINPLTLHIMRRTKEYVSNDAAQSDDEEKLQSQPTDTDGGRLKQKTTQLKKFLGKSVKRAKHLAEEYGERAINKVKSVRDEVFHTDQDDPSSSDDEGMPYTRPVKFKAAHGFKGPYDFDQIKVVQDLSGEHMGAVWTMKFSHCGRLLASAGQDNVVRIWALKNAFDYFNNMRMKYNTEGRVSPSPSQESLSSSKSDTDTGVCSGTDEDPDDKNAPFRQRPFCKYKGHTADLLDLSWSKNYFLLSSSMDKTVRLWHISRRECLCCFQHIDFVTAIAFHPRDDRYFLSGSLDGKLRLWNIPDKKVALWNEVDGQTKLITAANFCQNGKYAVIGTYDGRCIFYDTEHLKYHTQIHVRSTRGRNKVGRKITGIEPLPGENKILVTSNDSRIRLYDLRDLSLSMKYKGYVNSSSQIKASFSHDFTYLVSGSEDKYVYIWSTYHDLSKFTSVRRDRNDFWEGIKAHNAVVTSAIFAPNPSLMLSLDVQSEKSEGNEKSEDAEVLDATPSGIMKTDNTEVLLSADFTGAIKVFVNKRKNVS
Description: affinity purification with mass spectrometry; GFP-tagged bait in lysate of transfected HeLa cells (50 mM Tris pH 7.5, 150 mM NaCl, 1% NP-40) captured on anti-GFP nanobody magnetic beads, 2 h at 4°C; washes with 300 mM NaCl, 1% NP-40; LC-MS-MS; two independent experiments for each bait with a GFP-only control; filter: at least 3 spectral counts and bait to control ratio of 5 or more.

The chains behind the UniProt entries cited, without tags or fusion partners.
UniProt Q5T9C2: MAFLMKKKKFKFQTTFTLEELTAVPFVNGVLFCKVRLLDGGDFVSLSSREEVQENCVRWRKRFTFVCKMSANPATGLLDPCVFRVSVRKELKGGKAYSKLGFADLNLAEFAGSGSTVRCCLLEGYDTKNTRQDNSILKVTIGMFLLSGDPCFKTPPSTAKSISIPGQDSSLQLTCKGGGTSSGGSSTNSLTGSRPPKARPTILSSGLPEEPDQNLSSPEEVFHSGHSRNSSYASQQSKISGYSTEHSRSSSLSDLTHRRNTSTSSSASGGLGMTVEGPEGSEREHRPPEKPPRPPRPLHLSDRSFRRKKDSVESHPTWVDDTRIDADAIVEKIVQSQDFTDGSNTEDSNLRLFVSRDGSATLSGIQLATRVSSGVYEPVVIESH
UniProt P62491: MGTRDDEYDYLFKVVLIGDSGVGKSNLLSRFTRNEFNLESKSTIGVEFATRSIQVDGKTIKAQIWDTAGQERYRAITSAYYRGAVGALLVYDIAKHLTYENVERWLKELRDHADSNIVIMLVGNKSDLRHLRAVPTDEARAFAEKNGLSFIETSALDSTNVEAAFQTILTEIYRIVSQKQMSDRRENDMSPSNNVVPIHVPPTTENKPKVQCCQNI
UniProt Q99962: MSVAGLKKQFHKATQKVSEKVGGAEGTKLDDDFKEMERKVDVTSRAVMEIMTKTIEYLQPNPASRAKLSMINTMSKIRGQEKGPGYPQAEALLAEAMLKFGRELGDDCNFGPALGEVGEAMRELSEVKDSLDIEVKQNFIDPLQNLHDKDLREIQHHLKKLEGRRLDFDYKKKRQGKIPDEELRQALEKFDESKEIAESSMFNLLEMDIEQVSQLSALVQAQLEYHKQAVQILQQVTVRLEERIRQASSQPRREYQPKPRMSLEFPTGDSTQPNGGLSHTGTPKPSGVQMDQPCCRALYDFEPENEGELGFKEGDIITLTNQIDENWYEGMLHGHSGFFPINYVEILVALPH
UniProt Q99961: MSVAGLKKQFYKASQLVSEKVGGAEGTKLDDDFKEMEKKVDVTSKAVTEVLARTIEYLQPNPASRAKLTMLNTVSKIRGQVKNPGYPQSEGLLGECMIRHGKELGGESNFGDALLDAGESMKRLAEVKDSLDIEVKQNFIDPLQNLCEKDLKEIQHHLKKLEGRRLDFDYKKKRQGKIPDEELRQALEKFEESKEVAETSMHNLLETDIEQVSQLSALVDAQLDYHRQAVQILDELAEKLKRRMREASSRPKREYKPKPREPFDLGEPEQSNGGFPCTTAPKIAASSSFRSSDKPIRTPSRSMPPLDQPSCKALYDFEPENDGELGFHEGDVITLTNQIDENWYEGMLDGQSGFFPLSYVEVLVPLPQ

Another test addresses FAM102A::GFP (human) (UniProt Q5T9C2). Described as above.

Results are given in words; binding and its absence hold for the method and conditions named. In cells and extracts the contact can be indirect. Here binding means that the protein was enriched with, or labelled near, the bait; the list need not be complete. For some assays here: Tags and fused reporters may be left off the sequences shown.

Turning to RAB11A (from UniProt P62491 1-216), the binding result with WDR44::GFP (human) is reported as “binds”.

Regarding SH3GL2 (from UniProt Q99962 1-352), the binding result in the test with FAM102A::GFP (human) was “binds”.

As for FAM102A (from UniProt Q5T9C2 1-384), the binding result with WDR44::GFP (human) is “binds”.

In the case of SH3GL1 (from UniProt Q99961 1-368), the binding entry with FAM102A::GFP (human) is reported as “binds”.

B1: WDR44 (protein, UniProt Q5JSH3 1-913)
chain: MASESDTEEFYDAPEDVHLGGGYPVGSPGKVGLSTFKETENTAYKVGNESPVQELKQDVSKKIIESIIEESQKVLQLEDDSLDSKGKELSDQATASPIVARTDLSNIPGLLAIDQVLPEESQKAESQNTFEETELELKKCFPSDETCEKPVDETTKLTQTSSTEQLNVLETETEVLNKEAVEVKGGGDVLEPVSSDSLSTKDFAAVEEVAPAKPPRHLTPEPDIVASTKKPVPARPPPPTNFPPPRPPPPSRPAPPPRKRKSELEFETLKTPDIDVPKENITSDSLLTASMASESTVKDSQPSLDLASATSGDKIVTAQENGKAPDGQTVAGEVMGPQRPRSNSGRELTDEEILASVMIKNLDTGEEIPLSLAEEKLPTGINPLTLHIMRRTKEYVSNDAAQSDDEEKLQSQPTDTDGGRLKQKTTQLKKFLGKSVKRAKHLAEEYGERAINKVKSVRDEVFHTDQDDPSSSDDEGMPYTRPVKFKAAHGFKGPYDFDQIKVVQDLSGEHMGAVWTMKFSHCGRLLASAGQDNVVRIWALKNAFDYFNNMRMKYNTEGRVSPSPSQESLSSSKSDTDTGVCSGTDEDPDDKNAPFRQRPFCKYKGHTADLLDLSWSKNYFLLSSSMDKTVRLWHISRRECLCCFQHIDFVTAIAFHPRDDRYFLSGSLDGKLRLWNIPDKKVALWNEVDGQTKLITAANFCQNGKYAVIGTYDGRCIFYDTEHLKYHTQIHVRSTRGRNKVGRKITGIEPLPGENKILVTSNDSRIRLYDLRDLSLSMKYKGYVNSSSQIKASFSHDFTYLVSGSEDKYVYIWSTYHDLSKFTSVRRDRNDFWEGIKAHNAVVTSAIFAPNPSLMLSLDVQSEKSEGNEKSEDAEVLDATPSGIMKTDNTEVLLSADFTGAIKVFVNKRKNVS
For B1, in the test with FAM102A::GFP (human), the binding entry is “binds”.

Source of the values: paper PMC10339035.
